Patent US20250161244A1, “PREPARATION METHOD AND USE OF LIPOSOME ENCAPSULATING POLYPEPTIDE, SUBEROYLANILIDE HYDROXAMIC ACID (SAHA), AND VITAMIN A” (UNION HOSPITAL, TONGJI MEDICAL COLLEGE, HUAZHONG UNI. OF …, priority 2023, published 2025)

System: LX-2 cells (human HSCs)
Experiment: CCK8 experiment, proliferation of LX-2 cells
Type: cell-based
Conditions: CCK-8
Description: The liposome suspension prepared in Example 1 was centrifuged in an ultracentrifuge (10,000 rpm, 30 min) to fully precipitate the liposome; followed which a supernatant was discarded, and the remaining liposome was resuspended in a cell medium (a high-glucose Deme medium) for subsequent experiments.
• 1. Experimental purpose: the drug and its various components were added into the cell medium, respectively to explore whether there was an inhibitory effect on the proliferation of HSCs. The continuous activation of HSC was a key link in the development of hepatic fibrosis, and inhibiting the proliferation or activation of HSC was an important means to treat hepatic fibrosis. • 2. Experimental method: a “CCK8 experiment” was conducted to verify the effectiveness of the liposome drug disclosed in the present disclosure on liver fibroblasts, specifically as follows: • LX-2 cells (human HSCs) were inoculated in a 96-well plate at a density of 8,000 cells/well. After 24 h of culture, different components of the drug were respectively incubated with the cells for 48 h, and then a CCK-8 reagent was used for cytotoxicity detection. […]

O=C(CCCCCCC(=O)Nc1ccccc1)NO [SAHA, suberoylanilide hydroxamic acid]
cell proliferation activity relative to that of the original (48 h, concentration not specified (2.5/5 μM tested)): about 60% | inhibitory effect on LX-2 cells proliferation (48 h incubation, tested at 2.5 μM and 5 μM): significant inhibitory effect
